No constants are given. Whether binding was seen depends on the method and setting. In cells and extracts the contact can be indirect. Binding can be weak; no strength is given.
What was measured:
[1] = molecular target: T1, Tomato mosaic virus 30-kDa movement protein (Tomato mosaic virus) (UniProt P69513); experiment: split reporter; BiFC with N-terminal (nV) and C-terminal (cV) fragments of Venus fused to the C-terminal end of the target proteins (pGWnV3 and pGWcV plasmids); N. benthamiana leaves bombarded, Venus fluorescence seen at 24 h post-bombardment by confocal laser microscopy; MP-nV + MP-cV and 126K-nV + 126K-cV also co-expressed with NtREM-DsRed; some samples stained with aniline blue
T1 sequence: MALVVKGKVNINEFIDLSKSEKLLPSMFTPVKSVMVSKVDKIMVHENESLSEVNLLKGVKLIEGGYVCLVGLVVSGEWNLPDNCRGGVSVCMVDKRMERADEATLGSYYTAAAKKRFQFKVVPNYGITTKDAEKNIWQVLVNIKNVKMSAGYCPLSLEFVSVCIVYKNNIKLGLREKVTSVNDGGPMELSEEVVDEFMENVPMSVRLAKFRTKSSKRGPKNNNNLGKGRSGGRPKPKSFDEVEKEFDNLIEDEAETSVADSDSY

[2] = molecular target: Nt(sNN)REM1.2 (tobacco remorin, NtREM1.2 homolog from Nicotiana tabacum cv. Samsun NN) (Nicotiana tabacum cv. Samsun NN); experiment: as above

In the case of “Nt(sNN)REM1.2 (tobacco remorin, NtREM1.2 homolog from Nicotiana tabacum cv. Samsun NN)”, the binding [1] is reported as “binds”.

B1: Tomato mosaic virus 30-kDa movement protein (protein, UniProt P69513 1-264)
chain: MALVVKGKVNINEFIDLSKSEKLLPSMFTPVKSVMVSKVDKIMVHENESLSEVNLLKGVKLIEGGYVCLVGLVVSGEWNLPDNCRGGVSVCMVDKRMERADEATLGSYYTAAAKKRFQFKVVPNYGITTKDAEKNIWQVLVNIKNVKMSAGYCPLSLEFVSVCIVYKNNIKLGLREKVTSVNDGGPMELSEEVVDEFMENVPMSVRLAKFRTKSSKRGPKNNNNLGKGRSGGRPKPKSFDEVEKEFDNLIEDEAETSVADSDSY
For B1, the binding [2] was “binds”.

— publication PMC5962775
